# Data published in the supplement of paper PMC4604168 (melanoma cell lines).
# This is one part of the list. Repeats are few or missing, and single values can be far off.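 Imaging used 1,536-well plates; nuclei positive for cleaved PARP by antibody were divided by total DNA-stained nuclei to yield the apoptosis fraction. Doses for screening kept most cells viable, and cell lines differ markedly in resting and induced cleaved-PARP levels.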
# Tested on: RVH-421
# Assay: cleaved PARP positive nuclei fraction relative to DMSO control; melanoma cells; higher = more apoptosis
# Details: library dose: low library concentration; 72 h
row,Compound,cleaved PARP positive nuclei fraction [%]
1,"CO[C@H]1C[C@@H]2CC[C@@H](C)[C@@](O)(O2)C(=O)C(=O)N2CCCC[C@H]2C(=O)O[C@H]([C@H](C)C[C@@H]2CC[C@@H](OCCO)[C@H](OC)C2)CC(=O)[C@H](C)/C=C(\C)[C@@H](O)[C@@H](OC)C(=O)[C@H](C)C[C@H](C)/C=C/C=C/C=C/1C [everolimus] + NCC(=O)Nc1ccc(-n2nc(C(F)(F)F)cc2-c2ccc3c(ccc4ccccc43)c2)cc1 [OSU03012] (first compound 0.02 µM, partner dose 1 µM)",129
2,"CO[C@H]1C[C@@H]2CC[C@@H](C)[C@@](O)(O2)C(=O)C(=O)N2CCCC[C@H]2C(=O)O[C@H]([C@H](C)C[C@@H]2CC[C@@H](OCCO)[C@H](OC)C2)CC(=O)[C@H](C)/C=C(\C)[C@@H](O)[C@@H](OC)C(=O)[C@H](C)C[C@H](C)/C=C/C=C/C=C/1C [everolimus] + NC(=O)Nc1cc(-c2cccc(F)c2)sc1C(=O)N[C@H]1CCCNC1 [AZD7762] (first compound 0.02 µM, partner dose 0.02 µM)",118
3,"CO[C@H]1C[C@@H]2CC[C@@H](C)[C@@](O)(O2)C(=O)C(=O)N2CCCC[C@H]2C(=O)O[C@H]([C@H](C)C[C@@H]2CC[C@@H](OCCO)[C@H](OC)C2)CC(=O)[C@H](C)/C=C(\C)[C@@H](O)[C@@H](OC)C(=O)[C@H](C)C[C@H](C)/C=C/C=C/C=C/1C [everolimus] + O=C(Nc1ccccc1)c1cc([N+](=O)[O-])ccc1Cl [GW9662] (first compound 0.02 µM, partner dose 2 µM)",79.7
